From patent publication US9107415B2, “2-(substituted-phenyl)-cyclopentane-1,3-dione compounds, and derivatives thereof” (Syngenta Limited, priority 2011, dated 2015)
Some of these results come from one statement about several compounds together.

Test system: grassy monocotyledonous weeds such as Lolium, Alopecurus, Echinochloa and/or Avena
Assay: Post-emergence herbicidal activity on grassy monocotyledonous weeds, summary statements (Biological Examples 1 to 4)
Type: in vivo

Compound	post-emergence herbicidal activity against grassy monocotyledonous weeds, in words
CC#Cc1cc(C)c(C2=C(O)CC(Cc3ccccn3)C2=O)c(C)c1 (racemic) [Compound A-2, rac-2-(2,6-Dimethyl-4-prop-1-ynylphenyl)-4-(pyridin-2-ylmethyl)cyclopentane-1,3-dione]	potent post-emergence herbicidal activity
CC#Cc1cc(C)c(C2C(=O)C[C@@H](Cc3ccccn3)C2=O)c(C)c1 (some centres unmarked) [Compound A-6]	potent post-emergence herbicidal activity
